Data set [1] is described as follows: Thin-film transistor characterization of drop-casted and vapor-phase deposited semiconductor films. The settings on record: vapor-phase deposited film; dielectric SiO2-OTS; Table 5. As for the experimental part: Organic semiconductor thin films were fabricated by vapor deposition and solution phase deposition. Evaporated films were prepared in a Denton DV-502 vacuum deposition apparatus (10^−6-10^−7 Torr) on substrates kept at 25-120° C.
Organic semiconductor films were deposited on the following substrates: n^+-Si-(300 nm)SiO2 (Process Specialties Inc.), ITO, ITO-(100-600 nm) CPB dielectric (Polyera Corporation), PET-Al-(100-600 nm) CPB dielectric (Polyera Corporation). These were rinsed with water, methanol, and acetone before CPB or organic semiconductor film deposition. Silane functionalization of the Si/SiO2 surface was carried out by exposing the silicon-oxide wafers to hexamethyldisilazane (HMDS) and octadecyltrichlorosilane (OTS) vapor at room temperature in a closed container under nitrogen.
The growth rate of the films (0.1-0.4 Å/s) was controlled by adjusting the crucible temperature. A calibrated quartz-crystal microbalance was used to control the growth rate and film thickness. Solution-deposited films were fabricated by drop-casting (semiconductor concentration=0.1-2 mg/mL), spin-coating (semiconductor concentration=1-10 mg/mL, spin rate=500-5000 rpm), gravure/flexo printing (semiconductor concentration=10-130 mg/mL, anilox/printing force=10-500 N, printing speed=0.2-1.5 m/s), and inkjet printing (semiconductor concentration=1-10 mg/mL).
For thin-film transistor device fabrication, top-contact electrodes (500 Å) were deposited by evaporating gold (pressure <10^−5 Torr) on top of the gate (Si, ITO, Al)-dielectric (SiO2, CPB)-organic semiconductor samples. TFT device channel dimensions are 50-500 μm (L) by 0.5-4.0 mm (W). The capacitance of the employed insulators are 4-11 nF/cm^2. Electrical measurements were performed using a home-built coaxial probe station employing a Keithley 6430 subfemtoammeter and Keithley 2400 source meter, operated by a local Labview program and GPIB communication. Triaxial and/or coaxial shielding was incorporated into the Signaton probe station to minimize noise.
(§1) To allow comparison with other organic FETs, mobilities (μ) were calculated by standard field effect transistor equations. In traditional metal-insulator-semiconductor FETs (MISFETs), there is typically a linear and saturated regime in the IDS VS VDS curves at different VG (where IDS is the source-drain saturation current; VDS is the potential between the source and drain, and VG is the gate voltage). At large VDS, the current saturates and is given by: (IDS)sat=(WCi/2L)μ(VG−Vt) (1) where L and W are the device channel length and width, respectively, Ci is the capacitance of the oxide insulator (1×10^−8 F/cm^2 for 300 nm SiO2), and Vt is the threshold voltage.
(§2) Mobilities (μ) were calculated in the saturation regime by rearranging equation 1: μsat=(2IDSL)/[WCi(VG−Vt)^2] (2) where Ci, in this case, was 6·10^−8 F. The threshold voltage (Vt) can be estimated as the x intercept of the linear section of the plot of VG versus (IDS)^1/2 (at VSD=−100 V).
Table 4 summarizes electron mobilities and current Ion:Ioff ratios for representative compounds of the present teachings having been drop-casted and/or vapor-phase deposited to form thin film semiconductors.

Data set [2] in a line: Field effect transistor fabricated by spin-coating from CHCl3. The settings on record: spin-coated film from CHCl3; dielectric SiO2-OTS. As for the experimental part: as §1, §2
The representative compound (which may be a mixture of regioisomers) (4-8 mg) was dissolved in CHCl3 (0.5-2 mL) and the solution was spin-coated (1500 rpm) on an OTS-treated Si—SiO2 substrate. The film was then annealed at 80-120° C. in a vacuum-oven for 30 min-5 h. The FET device structure was completed by evaporation of the Au source/drain contacts.
FIG. 16A is a representative transfer plot measured in air for a spin-coated film from chloroform of a compound of the present teachings (PDI8-CN2). FIG. 16B is a representative transfer plot measured in air for a spin-coated film from chloroform of a compound of the present teachings (PDI2EH-CN2).
Table 5 summarizes electron mobilities and current Ion:Ioff ratios spin-coated films of representative PDI—CN2 core compounds of the present teachings.

Consider 3 molecules from US7902363B2, “Diimide-based semiconductor materials and methods of preparing and using the same” (Polyera Corporation, priority 2006, dated 2011).

For the molecule `CCCCC(CC)CN1C(=O)c2ccc3c4c(C#N)cc5c6c(ccc(c7c(C#N)cc(c2c37)C1=O)c64)C(=O)N(CC(CC)CCCC)C5=O` (stereo not drawn) [PDI2EH-CN2, N,N′-bis(2-ethylhexyl)-1,7-dicyanoperylene-3,4:9,10-bis(dicarboxiamide)], in data set [1], the “log(Ion:Ioff), Vapor-phase” value is listed as 6-8 and the “μ (cm^2/Vs) electron mobility, Vapor-phase” value was 0.1-0.3 cm^2/Vs. For the same molecule, in data set [2], the “log(Ion:Ioff), Spin-coating” value was 6-7 and the “μ (cm^2/Vs) electron mobility, Spin-coating” value is given as 0.2-0.3 cm^2/Vs.

For the molecule `CCCCC(C)CN1C(=O)c2ccc3c4c(C#N)cc5c6c(ccc(c7c(C#N)cc(c2c37)C1=O)c64)C(=O)N(CC(C)CCCC)C5=O` (stereo not drawn) [PDI2MH-CN2, N,N′-bis(2-methylhexyl)-1,7-dicyanoperylene-3,4:9,10-bis(dicarboxiamide)], in data set [1], the “log(Ion:Ioff), Vapor-phase” value is on record as 6-7 and the “μ (cm^2/Vs) electron mobility, Vapor-phase” value was 0.1-0.2 cm^2/Vs. Besides, in data set [2], the “log(Ion:Ioff), Spin-coating” value is given as 6-7 and the “μ (cm^2/Vs) electron mobility, Spin-coating” value is recorded as 0.1-0.2 cm^2/Vs.

As for `CCCCCCCCN1C(=O)c2ccc3c4c(C#N)cc5c6c(ccc(c7c(C#N)cc(c2c37)C1=O)c64)C(=O)N(CCCCCCCC)C5=O` [PDI8-CN2, N,N′-bis(4-n-octyl)-1,7-dicyanoperylene-3,4:9,10-bis(dicarboxiamide), reference compound], in data set [1], the “log(Ion:Ioff), Vapor-phase” value is listed as 4-5 and the “μ (cm^2/Vs) electron mobility, Vapor-phase” value is 0.1-0.2 cm^2/Vs. In addition, in data set [2], the “log(Ion:Ioff), Spin-coating” value is given as 2-4 and the “μ (cm^2/Vs) electron mobility, Spin-coating” value is 10^−5-10^−3 cm^2/Vs.
